Assay results: publication PMC5477519, “Leukocyte integrin Mac-1 regulates thrombosis via interaction with platelet GPIbα” (Nature Communications, 2017)
Where a chain is given by its changes, count along the chain named. Numbers in names are those of the source. No constants are given. Whether binding was seen depends on the method and setting. Some binding calls cover weakened binding; strength is not graded here. Tags and fused reporters may be left off the sequences shown. Each block holds one binder with its values, some of them ahead of it.

Chains of the proteins cited; added tags and fusions are not shown. Residues count along the entry.
UniProt P29965, residues 113-261: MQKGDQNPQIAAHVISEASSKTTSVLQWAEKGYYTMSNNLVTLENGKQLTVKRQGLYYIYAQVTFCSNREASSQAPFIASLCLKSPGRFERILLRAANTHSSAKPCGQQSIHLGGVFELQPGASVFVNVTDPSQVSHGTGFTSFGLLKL

Molecular target: CD40 ligand (R&D Systems) (UniProt P29965)
Assay: ELISA; solid phase assay; ligands coated on Costar 96-well HB plates (2 μg/ml, fibrinogen 1 μg/ml), post-coated with 0.5% PVP; GST-tagged I-domains 5 μg/ml in HBSS, 20 mM HEPES pH 7.4, 2 mM CaCl2, 2 mM MgCl2, 1 h at 37 °C; detected with HRP-labelled anti-GST; both purified

binding: binds
B1: WT murine αMI-domain (S213 and R216), GST fusion protein (domain or fragment, UniProt P05555 148-334)
chain: ESDIVFLIDGSGSINNIDFQKMKEFVSTVMEQFKKSKTLFSLMQYSDEFRIHFTFNDFKRNPSPRSHVSPIKQLNGRTKTASGIRKVVRELFHKTNGARENAAKILVVITDGEKFGDPLDYKDVIPEADRAGVIRYVIGVGNAFNKPQSRRELDTIASKPAGEHVFQVDNFEALNTIQNQLQEKIFA
modifications: Alexa-488 label (only in the flow cytometry on platelets, Fig. 6c)

binding: binds
B2: S213A/R216A murine αMI-domain double mutant, GST fusion protein (domain or fragment, UniProt P05555 148-334)
chain: B1 chain with S82A, R85A
modifications: Alexa-488 label (only in the flow cytometry on platelets, Fig. 6c)
